Measured values taken from ChEMBL document CHEMBL2429826, “Design, synthesis, and evaluation of prodrugs of ertapenem” (ACS Med Chem Lett, 2013).

Assay: Apparent permeability of the compound in pig LLC-PK1 cells

Q: For `C[C@@H](O)[C@H]1C(=O)N2C(C(=O)OCOC(=O)C(C)(C)C)=C(SC3CN(C4=NCCS4)C3)[C@H](C)[C@H]12` [TEBIPENEM PIVOXIL], which Papp is on record?
A: 10.1 ×10⁻⁶ cm/s
